Drug screen on melanoma cell lines: apoptosis marker

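The test systems are human melanoma cell lines, treated with two drugs together for 72 h and then stained and imaged. Each value is the cleaved-PARP-positive fraction of nuclei relative to DMSO-treated wells, in %, so that 100 equals the control and higher values mean more apoptosis. Every drug was used at one fixed concentration, the higher of two screened. No replicate spread is given; individual values may be noisy. Basal and induced levels differ widely between cell lines.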
This is part of the screen, not chosen by result.
An entry leaves out what has no value listed here.
A dash means that no value is listed here.

Every entry is a combination with U73122 at 2 µM: COc1ccc2c(c1)CCC1C2CCC2(C)C(NCCCCCCN3C(=O)C=CC3=O)CCC12 (configuration not stated)

| # | Partner | WM451Lu | IPC-298 | COLO 792 | RPMI-7951 | A101D | LB2518-MEL | WM3619 | UACC-62 |
|---|---|---|---|---|---|---|---|---|---|
| 1 | C=C(c1ccc(C(=O)O)cc1)c1cc2c(cc1C)C(C)(C)CCC2(C)C at 10 µM | 104 | 56.3 | 27.5 | 238 | 48.9 | 117 | 330 | 182 |
| 2 | CC(=O)O[C@@]12CO[C@@H]1C[C@H](O)[C@@]1(C)C(=O)[C@H](O)C3=C(C)[C@@H](OC(=O)[C@H](O)[C@@H](NC(=O)OC(C)(C)C)c4ccccc4)C[C@@](O)([C@@H](OC(=O)c4ccccc4)[C@H]21)C3(C)C at 0.0005 µM | 2940 | 184 | 745 | 502 | 286 | 239 | 198 | 340 |
| 3 | CC[C@]1(O)C[C@H]2CN(CCc3c([nH]c4ccccc34)[C@@](C(=O)OC)(c3cc4c(cc3OC)N(C=O)[C@H]3[C@@](O)(C(=O)OC)[C@H](OC(C)=O)[C@]5(CC)C=CCN6CC[C@]43[C@@H]65)C2)C1 at 0.0005 µM | 2510 | 123 | 16.5 | 771 | 577 | 125 | 134 | 579 |
| 4 | COc1cc2ncnc(Nc3ccc(Oc4ccccc4)cc3)c2cc1OC at 10 µM | 39.6 | 78.6 | 105 | 424 | 78.0 | 100 | 185 | 337 |
| 5 | Cc1cc([N+](=O)[O-])ccc1NS(=O)(=O)c1cc(Cl)ccc1Cl at 5 µM | 89.4 | 181 | 139 | 353 | 413 | 79.0 | 405 | 143 |
| 6 | CC(C)C[C@H](NC(=O)[C@H](Cc1ccccc1)NC(=O)c1cnccn1)B(O)O at 0.005 µM | 3550 | 220 | 70.9 | 1220 | 1430 | 750 | 2760 | 391 |
| 7 | CCN(CC)CCCCNc1ncc2cc(-c3cc(OC)cc(OC)c3)c(NC(=O)NC(C)(C)C)nc2n1 at 0.5 µM | 122 | 24.0 | 128 | 163 | 119 | 160 | 154 | 92.2 |
| 8 | COC(=O)c1sccc1S(=O)(=O)Nc1ccc(Nc2ccccc2)cc1OC at 5 µM | 219 | 53.2 | 105 | 170 | 129 | 54.3 | 119 | 326 |
| 9 | COc1cc(Nc2ncc(F)c(Nc3ccc4c(n3)NC(=O)C(C)(C)O4)n2)cc(OC)c1OC at 2 µM | 110 | 214 | 105 | 227 | 308 | 142 | 193 | 83.0 |
| 10 | CN1CCN(c2ccc3nc(-c4c(N)c5c(F)cccc5[nH]c4=O)[nH]c3c2)CC1 at 0.5 µM | 28.2 | 324 | 63.4 | 313 | 72.1 | 238 | 156 | 57.1 |
| 11 | CN(c1ncccc1CNc1nc(Nc2ccc3c(c2)CC(=O)N3)ncc1C(F)(F)F)S(C)(=O)=O at 0.4 µM | 132 | 39.6 | 106 | 131 | 25.1 | 95.2 | 98.0 | 206 |
| 12 | CN(C)S(=O)(=O)c1ccc2c(c1)/C(=C/c1cc3c([nH]1)CCCC3)C(=O)N2 at 2 µM | 83.1 | 143 | 77.2 | 178 | 116 | 36.9 | 110 | 162 |
| 13 | CC1(C)CCC(c2ccc(Cl)cc2)=C(CN2CCN(c3ccc(C(=O)NS(=O)(=O)c4ccc(N[C@H](CCN5CCOCC5)CSc5ccccc5)c(S(=O)(=O)C(F)(F)F)c4)cc3)CC2)C1 at 2 µM | 147 | 253 | 890 | 741 | 991 | - | 142 | 518 |
| 14 | NC1(c2ccc(-c3nc4ccn5c(=O)[nH]nc5c4cc3-c3ccccc3)cc2)CCC1 at 2 µM | 114 | 152 | 170 | 181 | 49.5 | 133 | 93.5 | 352 |
| 15 | NC(=O)Nc1cc(-c2cccc(F)c2)sc1C(=O)N[C@H]1CCCNC1 at 0.1 µM | 190 | 40.4 | 103 | 135 | 61.5 | 57.4 | 169 | 162 |
| 16 | CNC(=O)c1cc(Oc2ccc(NC(=O)Nc3ccc(Cl)c(C(F)(F)F)c3)cc2)ccn1 at 2 µM | 30.0 | 98.6 | 79.7 | 275 | 162 | 47.6 | 147 | 294 |
| 17 | Cc1cn(-c2cc(NC(=O)c3ccc(C)c(Nc4nccc(-c5cccnc5)n4)c3)cc(C(F)(F)F)c2)cn1 at 1 µM | 42.8 | 77.8 | 65.7 | 105 | 77.8 | 229 | 121 | 418 |
| 18 | COc1cc(N2CCC(N3CCN(C)CC3)CC2)ccc1Nc1ncc(Cl)c(Nc2ccccc2S(=O)(=O)C(C)C)n1 at 0.4 µM | 60.0 | 63.1 | 140 | 189 | 176 | - | 109 | 155 |
| 19 | O=C(CCCCCCC(=O)Nc1ccccc1)NO at 0.4 µM | 120 | 64.0 | 131 | 227 | 143 | 77.8 | 239 | 273 |
| 20 | Cn1nnc2c(C(N)=O)ncn2c1=O at 10 µM | 212 | 108 | 79.2 | 365 | 92.9 | 71.5 | 242 | 192 |

Some entries from above, unchanged:

* CN(c1ncccc1CNc1nc(Nc2ccc3c(c2)CC(=O)N3)ncc1C(F)(F)F)S(C)(=O)=O at 0.4 µM : WM451Lu: 132; IPC-298: 39.6; COLO 792: 106; RPMI-7951: 131; A101D: 25.1; LB2518-MEL: 95.2; WM3619: 98.0; UACC-62: 206
* NC(=O)Nc1cc(-c2cccc(F)c2)sc1C(=O)N[C@H]1CCCNC1 at 0.1 µM : WM451Lu: 190; IPC-298: 40.4; COLO 792: 103; RPMI-7951: 135; A101D: 61.5; LB2518-MEL: 57.4; WM3619: 169; UACC-62: 162

Values as published with doi:10.1371/journal.pone.0140310, rounded.